These are yes or no findings as the source states them, for the method shown. For some of these results: A result given as binding can be weak or reduced; the word gives no strength. Where a sequence is shown, tags or fusion partners need not be part of it.
B1: OsGBSSI (yeast two-hybrid fusion) (enzyme, UniProt Q0DEV5 1-609)
chain: MSALTTSQLATSATGFGIADRSAPSSLLRHGFQGLKPRSPAGGDATSLSVTTSARATPKQQRSVQRGSRRFPSVVVYATGAGMNVVFVGAEMAPWSKTGGLGDVLGGLPPAMAANGHRVMVISPRYDQYKDAWDTSVVAEIKVADRYERVRFFHCYKRGVDRVFIDHPSFLEKVWGKTGEKIYGPDTGVDYKDNQMRFSLLCQAALEAPRILNLNNNPYFKGTYGEDVVFVCNDWHTGPLASYLKNNYQPNGIYRNAKVAFCIHNISYQGRFAFEDYPELNLSERFRSSFDFIDGYDTPVEGRKINWMKAGILEADRVLTVSPYYAEELISGIARGCELDNIMRLTGITGIVNGMDVSEWDPSKDKYITAKYDATTAIEAKALNKEALQAEAGLPVDRKIPLIAFIGRLEEQKGPDVMAAAIPELMQEDVQIVLLGTGKKKFEKLLKSMEEKYPGKVRAVVKFNAPLAHLIMAGADVLAVPSRFEPCGLIQLQGMRYGTPCACASTGGLVDTVIEGKTGFHMGRLSVDCKVVEPSDVKKVAATLKRAIKVVGTPAYEEMVRNCMNQDLSWKGPAKNWENVLLGLGVAGSAPGIEGDEIAPLAKENVAAP
B2: OsPPDKB (yeast two-hybrid fusion) (enzyme, UniProt Q6AVA8 1-947)
chain: MPSVSRAVCVQRASGNNGRRCRDGAAAAGRRSVVAQRARHGKPEVAIRSGSGGSARGGHCSPLRAVAAPIPTTKKRVFHFGKGKSEGNKAMKDLLGGKGANLAEMASIGLSVPPGFTVSTEACQQYQAAGKTLPAGLWEEIVEGLQWVEEYMAARLGDPARPLLLSVRSGAAVSMPGMMDTVLNLGLNDEVAAGLAAKSGDRFAYDSYRRFLDMFGNVVMDIPHALFEEKLEAMKAVKGLHNDTDLTATDLKELVAQYKDVYVEAKGEPFPSDPKKQLQLAVLAVFNSWDSPRAIKYRSINKITGLKGTAVNVQTMVFGNMGNTSGTGVLFTRNPSTGEKKLYGEFLVNAQGEDVVAGIRTPEDLDAMRDHMPEPYEELVENCKILESHYKEMMDIEFTVQENRLWMLQCRTGKRTGKGAVKIAVDMVNEGLVERRTALKMVEPGHLDQLLHPQFENPSGYKDKVIATGLPASPGAAVGQIVFTAEDAEAWHAQGKDVILVRTETSPEDVGGMHAAVGILTARGGMTSHAAVVARGWGKCCVSGCSSVRVNDASKIVVIEDKALHEGEWLSLNGSTGEVIIGKQPLCPPALSGDLETFMSWVDEVRKLKVMANADTPEDATTARQNGAEGIGLCRTEHMFFASDERIKAVRQMIMASSLELRQKALDRLLPYQRSDFEGIFRAMDGLPVTIRLLDPPLHEFLPEGHVEDMVRELCSETGAAQDDVLARVEKLSEVNPMLGFRGCRLGISYPELTEMQARAIFEAAITMTNQGIQVFPEIMVPLVGTPQELGHQVDVIRQIANKVFTDMGKTIGYKVGTMIEIPRAALVADEIAEQAEFFSFGTNDLTQMTFGYSRDDVGKFLPIYLSQGILQHDPFEVLDQRGVGELVKLATERGRKARPNLKVGICGEHGGEPLSVAFFAKAGLDYVSCSPFRVPIARLAAAQVLL

Key:
[1] = biological target: OsHsp40-1 (yeast two-hybrid fusion) (rice (Oryza sativa L.)); test: two-hybrid; yeast two-hybrid (Y2H); screens and tests of full-length and truncated forms
[2] = biological target: OsHsp70-2 (yeast two-hybrid fusion) (rice (Oryza sativa L.)); test: as above

| Binder | binding [1] | binding [2] |
| --- | --- | --- |
| B1 | binds | no binding |
| B2 | binds | no binding |

From paper PMC11759936
